Assay results taken from PubChem BioAssay AID662 (National Center for Advancing Translational Sciences (NCATS), 2007).
Some of the results follow. Further columns of the screen follow, without active or inactive calls. The list favours compounds with an active or inconclusive main result. Words in brackets tell the shape of the fitted curve; partial curves, single points and poor fits give uncertain potencies.

assay: Cell signaling CRE-BLA (Fsk stim); settings: CHO CRE-bla reporter (cAMP response element driving beta-lactamase), forskolin EC10, beta-lactamase ratio; measured here: 460 nm blue channel
Summary of the method: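 Titrated compounds plus EC10 NKH 477 on CHO CRE-bla cells, 3 h, 37 °C. CCF4, 2 h RT. Ratio 460/530 nm → AC50.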

Compound	AC50
COc1cc2c(cc1OC)CN(C(=O)c1ccc(OC)c(S(=O)(=O)N3CCOCC3)c1)CC2	25.1 µM [rising, single point]
CCOC(=O)C1CCN(C(=O)Cc2c(F)cccc2Cl)CC1	0.00794 µM [falling, full curve]
O=C(Nc1nc(-c2cccs2)cs1)c1cccc(S(=O)(=O)N2CCCCCC2)c1	25.1 µM [falling, single point]
Cc1ccc2nc3ccc(N4CCCC4)nn3c(=O)c2c1	12.6 µM [rising, partial curve]
COc1ccc(N2CSC3=C(C#N)C(c4ccc(OC)c(OC)c4)CC(=O)N3C2)c(OC)c1 (stereo unspecified)	12.6 µM [rising, single point]
CC1(C)Cc2c(C#N)c(NC3CCCCC3)nc(-c3ccco3)c2CO1	3.16 µM [rising, partial curve]
CCC(C)Sc1nc2c(c(=O)[nH]c(=O)n2C)n1Cc1ccc(Cl)cc1 (stereo unspecified)	5.01 µM [rising, partial curve]
Cc1ccc(-c2csc(N3CCC(NS(=O)(=O)c4ccc5c(c4)OCCO5)CC3)n2)cc1	7.94 µM [falling, partial curve]
O=C(CCSCc1ccccc1F)N1CCN(c2ccccn2)CC1	25.1 µM [falling, single point]
Cc1cccc2sc(NC(=O)CNS(=O)(=O)c3ccc(Br)s3)nc12	0.251 µM [falling, full curve]
COc1cc(C2c3c(oc4c(C)cc(C)cc4c3=O)C(=O)N2Cc2cccnc2)ccc1O (stereo unspecified)	6.31 µM [rising, partial curve]
COc1cccc(CN2CCN(CC(=O)Nc3ccccc3Cl)CC2)c1	25.1 µM [falling, partial curve]
C=CCn1c(CCNC(=O)c2cccs2)nnc1SCC(=O)Nc1cccc(C(C)=O)c1	25.1 µM [rising, single point]
O=C(Nc1ccncc1)c1c(F)cccc1F	5.01 µM [falling, partial curve]
COCCOc1ccc(C(F)(F)F)cc1NC(=O)COC(=O)c1c(C)noc1C	10 µM [rising, single point]
CCOc1ccc2[nH]c(C)c(CN3CCCCC3)c(=O)c2c1	7.94 µM [rising, partial curve, poor fit]
COc1ccc(-c2nnc3sc(C(C)N4C(=O)c5ccccc5C4=O)nn23)cc1 (stereo unspecified)	10 µM [rising, partial curve]
Cc1cccc(CNc2cc(-c3cccnc3)ncn2)c1	7.94 µM [rising, partial curve]
COc1ccccc1-c1cc(C(=O)Nc2cccnc2)no1	25.1 µM [rising, single point]
COc1ccc(-c2cc(C(=O)NCCN3CCOCC3)c3ccccc3n2)cc1	12.6 µM [rising, single point]
COc1ccc(Oc2ncc3nc(C)c(=O)n(Cc4cccc(OC)c4)c3n2)cc1	7.94 µM [rising, partial curve]
Cn1c(=O)c2c(SCc3cccnc3)nc(CC(C)(C)C)nc2n(C)c1=O	3.98 µM [rising, single point]

Compound	AC50
O=C(CSc1nnc(-c2ccc(Cl)cc2)n1Cc1ccco1)Nc1ccc2c(c1)OCCO2	0.501 µM [falling, full curve, poor fit]
Cc1ccc(-c2csc(/C(C#N)=C(\O)CN3CCN(C(=O)c4ccco4)CC3)n2)cc1	3.16 µM [rising, partial curve]
Cc1cccc(-c2cc3nc4c(c(N5CCOCC5)n3n2)CCCC4)c1	2 µM [rising, full curve, poor fit]
CC(C)(C)NC(=O)Cn1nnc(-c2ccc(Cl)cc2)n1	5.01 µM [falling, single point]
O=c1oc2c(CN3CCOCC3)c(O)ccc2c2c1CCCC2	12.6 µM [rising, partial curve]
CC(=O)N1C=CN(C(C)=O)C(c2cn(C)c3ccccc23)C1c1cn(C)c2ccccc12 (stereo unspecified)	1 µM [falling, partial curve]
CC1(C)OC(=O)C2(Cc3ccccc3N3CCCCC32)C(=O)O1 (stereo unspecified)	0.1 µM [falling, full curve]
CCNc1nc(NCc2ccccc2)nc(Oc2ccc(=O)[nH]n2)n1	0.631 µM [rising, full curve, poor fit]
O=C(CN(C(=O)CCC(=O)Nc1nccs1)c1ccc(F)cc1)NCc1ccco1	0.126 µM [falling, full curve, poor fit]
CN1CCN(c2ccnc(-c3ccc(N(C)C)cc3)n2)CC1	10 µM [rising, partial curve]
CN(C)c1ncc2nc(-c3ccc(Cl)cc3)c(=O)n(Cc3cccs3)c2n1	0.501 µM [rising, full curve]
O=c1c(-c2nc3ccccc3o2)c2oc3ccccc3n2c2ccccc12	3.16 µM [rising, partial curve]
CC1CCN(S(=O)(=O)c2cccc(-c3nnc(-c4cccnc4)o3)c2)CC1	10 µM [rising, partial curve]
CC(=O)OCC(=O)[C@@]1(O)CC[C@@H]2[C@H]3CCC4=CC(=O)CC[C@]4(C)[C@]3(F)[C@@H](O)C[C@@]21C	12.6 µM [falling, single point]
O=C(c1oc(=O)c2ccccc2c1-c1ccccc1)N1CCOCC1	0.126 µM [rising, partial curve]
O=C(O)c1ccccc1-c1ccccc1C(=O)Nc1ccc2c(c1)Cc1cc(F)ccc1-2	1 µM [falling, partial curve]
O=C(NC1CCCCCCC1)C1CCN(S(=O)(=O)N2CCCC2)CC1	7.94 µM [falling, partial curve]
CCn1c(SCC(N)=O)nc2c(c1=O)C1(CCCC1)Cc1ccccc1-2	1.58 µM [rising, partial curve]
CN(C)c1ccc(CNn2cnnc2SCc2ccc(F)cc2)cc1	6.31 µM [falling, partial curve]
COc1ccccc1NC(=O)CSc1nc2sc(C)c(C)c2c(=O)n1Cc1ccco1	5.01 µM [rising, full curve]
Cc1nc(-c2ccccc2O)n(S(=O)(=O)N(C)C)n1	5.01 µM [falling, single point]
COc1ccc2[nH]c(=O)c(CN(C(=O)c3ccncc3)C(C)(C)C)cc2c1	10 µM [rising, single point]

Compound	AC50
Cc1ccc(C2NC(=O)c3c(sc4c3CCN(C)C4)N2)s1 (stereo unspecified)	10 µM [rising, partial curve]
CN(C)c1ccc(/C=N/n2ncc3ccccc32)cc1	10 µM [rising, partial curve]
O=C(NC1(C(F)(F)F)NC(=O)N(C2CCCCC2)C1=O)c1cccs1 (stereo unspecified)	10 µM [falling, partial curve]
COc1ccc(-n2c(=O)c(-c3ccc(Cl)cc3)nc3cnc(N4CCNCC4)nc32)cc1	3.16 µM [rising, full curve]
COc1c(C)cc(Br)cc1C(=O)NCc1cccnc1	0.0316 µM [rising, full curve]
COC(=O)[C@@]1(Cc2ccc(OC)cc2)[C@H]2c3cc(C(=O)N(C)C)n(Cc4ccc(OC)c(OC)c4)c3C[C@H]2CN1C(=O)c1ccccc1	6.31 µM [rising, partial curve]
Cc1noc(C)c1COC(=O)c1ccc(-c2nc3ccccc3s2)s1	0.1 µM [rising, full curve, poor fit]
CCCCn1c(SCC(=O)NCC2CCCO2)nc2ccc(N3CCOCC3)cc2c1=O (stereo unspecified)	7.94 µM [rising, partial curve]
O=C(O)C=C1C2CC3CC(C2)CC1C3	1 µM [falling, partial curve, poor fit]
O=C(COc1ccc(Cl)cc1Cl)N1CCCCCC1	0.398 µM [rising, full curve]
COc1ccc(NC(=O)c2ccco2)cc1NC(=O)c1ccco1	12.6 µM [rising, single point]
COc1ccc(C2=Nn3c(nnc3-c3ccc(OC)cc3)SC2)cc1	12.6 µM [rising, partial curve]
CCOC(=O)c1nnsc1NC(C)=O	0.126 µM [falling, full curve]
COC(=O)Nc1nnc(SCc2ccc(C)cc2)s1	5.01 µM [rising, partial curve]
COc1ccc(-c2nc3cnc(N4CCNCC4)nc3n(-c3ccc(OC)cc3)c2=O)cc1	2.51 µM [rising, full curve]
CCOc1ccc(-c2noc(-c3cccnc3)n2)cc1OC	2 µM [rising, single point]
Cc1ccc(C(C)C)c(OCc2nnc3n2CCCCC3)c1	10 µM [rising, partial curve]
CN(C(=O)COC(=O)c1nc(-c2ccccc2)n(-c2ccccc2)n1)C1CCS(=O)(=O)C1 (stereo unspecified)	0.794 µM [falling, partial curve, poor fit]
c1ccc2c(NCCN3CCOCC3)nc(-c3ccc4c(c3)OCO4)nc2c1	10 µM [rising, partial curve]
CC1CN(C2CCCCC2)c2nc3c(c(=O)n(C)c(=O)n3C)n2C1 (stereo unspecified)	12.6 µM [rising, single point]
CC(C)N(C(=O)COC(=O)c1ccccc1C(=O)N1CCN(c2ccc(F)cc2)CC1)C(C)C	1.58 µM [falling, partial curve]
Cc1c(C(=O)O)oc2c1ccc1ccccc12	1.58 µM [falling, single point]

Arranged by length of the SMILES (high to low): 5 of the compounds above.
Compound	AC50
COc1ccc(-n2c(=O)c(-c3ccc(Cl)cc3)nc3cnc(N4CCNCC4)nc32)cc1	3.16 µM [rising, full curve]
CCCCn1c(SCC(=O)NCC2CCCO2)nc2ccc(N3CCOCC3)cc2c1=O (stereo unspecified)	7.94 µM [rising, partial curve]
O=C(NC1(C(F)(F)F)NC(=O)N(C2CCCCC2)C1=O)c1cccs1 (stereo unspecified)	10 µM [falling, partial curve]
Cc1noc(C)c1COC(=O)c1ccc(-c2nc3ccccc3s2)s1	0.1 µM [rising, full curve, poor fit]
O=C(O)C=C1C2CC3CC(C2)CC1C3	1 µM [falling, partial curve, poor fit]
